From patent publication US5840838A, “Process for enhancing the activity of amyloid β peptides” (University of Kentucky Research Foundation, priority 1996, dated 1998)
Part of at least one peptide drawing is inferred or uncertain, most often the ends. Residues, ends and D or L forms follow the SMILES beside them.

Test: Peptide free radical generating capacity by EPR spin trapping with PBN
Conditions: Aβ(25-35) lot WL650 coincubated with PBN

Structure (SMILES) | PBN spin adduct EPR spectrum type
CC[C@H](C)[C@H](NC(=O)[C@H](C)NC(=O)CNC(=O)[C@H](CCCCN)NC(=O)[C@H](CC(N)=O)NC(=O)[C@H](CO)NC(=O)CN)C(=O)N[C@H](C(=O)NCC(=O)N[C@@H](CC(C)C)C(=O)N[C@@H](CCSC)C(=O)O)[C@@H](C)CC [DMSO-treated Aβ(25-35)] (H-GSNKGAIIGLM-OH) | both the 4-line component and a nascent but weak 3-line component
CC[C@H](C)[C@H](NC(=O)[C@H](C)NC(=O)CNC(=O)[C@H](CCCCN)NC(=O)[C@H](CC(N)=O)NC(=O)[C@H](CO)NC(=O)CN)C(=O)N[C@H](C(=O)NCC(=O)N[C@@H](CC(C)C)C(=O)N[C@@H](CCSC)C(=O)O)[C@@H](C)CC [H2O-treated Aβ(25-35)] (H-GSNKGAIIGLM-OH) | no effect on the nature of the PBN spin adduct
CC[C@H](C)[C@H](NC(=O)[C@H](C)NC(=O)CNC(=O)[C@H](CCCCN)NC(=O)[C@H](CC(N)=O)NC(=O)[C@H](CO)NC(=O)CN)C(=O)N[C@H](C(=O)NCC(=O)N[C@@H](CC(C)C)C(=O)N[C@@H](CCSC)C(=O)O)[C@@H](C)CC [TFE-treated Aβ(25-35)] (H-GSNKGAIIGLM-OH) | 3-line EPR spectrum
CC[C@H](C)[C@H](NC(=O)[C@H](C)NC(=O)CNC(=O)[C@H](CCCCN)NC(=O)[C@H](CC(N)=O)NC(=O)[C@H](CO)NC(=O)CN)C(=O)N[C@H](C(=O)NCC(=O)N[C@@H](CC(C)C)C(=O)N[C@@H](CCSC)C(=O)O)[C@@H](C)CC [native Aβ(25-35)] (H-GSNKGAIIGLM-OH) | 4-line spectrum
